From publication PMC12583701
Like-named read-outs stand apart in the source and are kept apart here. Results are given in words; binding and its absence hold for the method and conditions named. In cells and extracts the contact can be indirect. Some results given as binding are weak or reduced against the parent protein; the word gives no strength.

By UniProt entry, the sequences of proteins in these tests, tags left out. Where a name states a change or a piece, a line headed by the entry shows the natural chain unless it says otherwise.
UniProt Q8VI36: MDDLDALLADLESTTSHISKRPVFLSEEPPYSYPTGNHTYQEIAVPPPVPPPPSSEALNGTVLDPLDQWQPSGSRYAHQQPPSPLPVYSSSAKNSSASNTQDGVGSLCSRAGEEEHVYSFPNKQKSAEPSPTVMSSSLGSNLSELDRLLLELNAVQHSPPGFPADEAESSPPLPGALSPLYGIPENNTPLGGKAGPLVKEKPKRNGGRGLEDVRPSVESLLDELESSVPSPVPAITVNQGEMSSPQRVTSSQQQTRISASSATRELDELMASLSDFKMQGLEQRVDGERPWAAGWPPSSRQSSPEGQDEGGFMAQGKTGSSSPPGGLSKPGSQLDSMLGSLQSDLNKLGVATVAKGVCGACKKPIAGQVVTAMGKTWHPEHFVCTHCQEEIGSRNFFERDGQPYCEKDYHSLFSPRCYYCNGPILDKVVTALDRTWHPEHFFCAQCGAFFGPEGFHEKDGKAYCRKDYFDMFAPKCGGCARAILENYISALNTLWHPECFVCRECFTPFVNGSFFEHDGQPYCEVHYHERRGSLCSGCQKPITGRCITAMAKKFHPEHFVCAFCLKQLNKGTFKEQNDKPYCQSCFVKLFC
UniProt P49024: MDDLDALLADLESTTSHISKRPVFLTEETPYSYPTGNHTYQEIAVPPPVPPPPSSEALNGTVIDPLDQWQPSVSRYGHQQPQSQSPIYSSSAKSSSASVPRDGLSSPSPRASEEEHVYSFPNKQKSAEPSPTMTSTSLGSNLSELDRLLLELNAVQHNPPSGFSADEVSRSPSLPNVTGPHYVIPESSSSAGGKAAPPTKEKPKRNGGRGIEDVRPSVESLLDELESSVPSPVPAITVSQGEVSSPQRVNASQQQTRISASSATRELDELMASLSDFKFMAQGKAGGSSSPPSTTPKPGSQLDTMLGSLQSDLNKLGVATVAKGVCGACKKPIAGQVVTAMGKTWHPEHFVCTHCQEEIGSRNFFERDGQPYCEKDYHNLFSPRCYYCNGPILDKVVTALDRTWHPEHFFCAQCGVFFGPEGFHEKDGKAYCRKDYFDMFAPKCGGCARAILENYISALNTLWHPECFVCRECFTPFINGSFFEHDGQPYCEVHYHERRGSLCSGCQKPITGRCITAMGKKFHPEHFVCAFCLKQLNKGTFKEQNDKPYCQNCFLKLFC
UniProt F2Z3T9: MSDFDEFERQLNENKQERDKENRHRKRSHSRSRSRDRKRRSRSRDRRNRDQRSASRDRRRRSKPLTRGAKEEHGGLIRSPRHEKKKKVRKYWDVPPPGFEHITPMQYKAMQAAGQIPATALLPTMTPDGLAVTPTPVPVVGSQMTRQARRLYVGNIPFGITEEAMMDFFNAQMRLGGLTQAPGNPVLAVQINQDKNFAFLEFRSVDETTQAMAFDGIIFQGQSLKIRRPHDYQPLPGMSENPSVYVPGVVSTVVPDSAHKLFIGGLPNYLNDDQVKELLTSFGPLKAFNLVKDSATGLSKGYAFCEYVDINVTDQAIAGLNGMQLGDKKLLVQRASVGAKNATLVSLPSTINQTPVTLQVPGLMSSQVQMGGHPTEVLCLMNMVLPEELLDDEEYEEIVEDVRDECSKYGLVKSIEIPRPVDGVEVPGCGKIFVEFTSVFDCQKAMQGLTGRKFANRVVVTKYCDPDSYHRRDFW
UniProt Q61701: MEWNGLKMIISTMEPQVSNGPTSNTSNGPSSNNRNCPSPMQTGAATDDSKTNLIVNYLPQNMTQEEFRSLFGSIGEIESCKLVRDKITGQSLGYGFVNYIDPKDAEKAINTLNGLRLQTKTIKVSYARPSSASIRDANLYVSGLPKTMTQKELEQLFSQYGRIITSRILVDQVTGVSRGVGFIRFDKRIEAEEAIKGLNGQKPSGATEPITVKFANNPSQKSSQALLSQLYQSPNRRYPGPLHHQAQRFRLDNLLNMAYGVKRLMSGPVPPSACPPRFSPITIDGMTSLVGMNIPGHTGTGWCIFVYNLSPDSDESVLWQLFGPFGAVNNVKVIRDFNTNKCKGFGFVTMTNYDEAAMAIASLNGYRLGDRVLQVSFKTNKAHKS
UniProt O09032: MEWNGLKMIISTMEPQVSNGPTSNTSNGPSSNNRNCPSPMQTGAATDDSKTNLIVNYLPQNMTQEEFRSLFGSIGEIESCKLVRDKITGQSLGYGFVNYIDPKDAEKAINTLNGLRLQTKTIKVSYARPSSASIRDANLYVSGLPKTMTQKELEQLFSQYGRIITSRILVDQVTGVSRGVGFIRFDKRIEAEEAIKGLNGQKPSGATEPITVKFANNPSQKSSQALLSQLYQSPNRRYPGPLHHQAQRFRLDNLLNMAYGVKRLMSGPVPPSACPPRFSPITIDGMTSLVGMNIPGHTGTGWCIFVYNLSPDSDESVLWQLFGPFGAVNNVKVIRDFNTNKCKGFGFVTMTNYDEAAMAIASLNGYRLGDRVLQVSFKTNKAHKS
UniProt O88477: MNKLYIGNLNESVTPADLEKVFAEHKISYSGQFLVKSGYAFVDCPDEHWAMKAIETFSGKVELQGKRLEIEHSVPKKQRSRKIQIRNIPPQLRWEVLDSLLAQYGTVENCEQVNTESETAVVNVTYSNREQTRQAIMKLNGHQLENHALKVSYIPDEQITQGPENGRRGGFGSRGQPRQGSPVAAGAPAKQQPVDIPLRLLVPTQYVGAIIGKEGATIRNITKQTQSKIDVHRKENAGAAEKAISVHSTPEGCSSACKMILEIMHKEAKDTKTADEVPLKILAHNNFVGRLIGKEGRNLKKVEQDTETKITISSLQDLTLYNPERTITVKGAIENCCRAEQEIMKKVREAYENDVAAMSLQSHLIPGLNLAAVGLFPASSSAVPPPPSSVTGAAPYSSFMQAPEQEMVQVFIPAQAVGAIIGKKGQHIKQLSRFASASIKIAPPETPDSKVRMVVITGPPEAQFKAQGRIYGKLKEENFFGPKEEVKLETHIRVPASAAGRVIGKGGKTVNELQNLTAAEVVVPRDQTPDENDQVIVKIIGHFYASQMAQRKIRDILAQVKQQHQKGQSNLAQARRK
UniProt P26369: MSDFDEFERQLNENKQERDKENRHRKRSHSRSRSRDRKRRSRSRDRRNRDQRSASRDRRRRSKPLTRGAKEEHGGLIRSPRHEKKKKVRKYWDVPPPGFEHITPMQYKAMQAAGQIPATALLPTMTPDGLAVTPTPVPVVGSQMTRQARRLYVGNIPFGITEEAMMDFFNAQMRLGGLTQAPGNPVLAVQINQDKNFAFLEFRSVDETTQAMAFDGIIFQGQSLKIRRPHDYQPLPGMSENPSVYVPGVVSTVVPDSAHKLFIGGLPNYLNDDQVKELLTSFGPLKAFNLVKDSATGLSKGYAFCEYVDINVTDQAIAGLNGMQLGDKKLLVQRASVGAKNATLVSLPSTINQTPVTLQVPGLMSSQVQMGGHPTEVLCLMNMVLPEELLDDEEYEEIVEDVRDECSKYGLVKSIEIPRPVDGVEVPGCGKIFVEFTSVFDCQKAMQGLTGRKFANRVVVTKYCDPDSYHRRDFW

Tests used:
[1] = biological target: paxillin (endogenous, rat primary neurons) (rat (endogenous in primary neuronal cultures)) (UniProt Q66H76); experiment: co-IP; paxillin immunoprecipitated from lysates of DIV7 primary neuronal cultures (control, BDNF 20 ng/ml 2 h, or IPZ 5 μM 16 h then BDNF); immunoblot of co-precipitated proteins
[2] = biological target: paxillin (endogenous, brain lysate) (mouse (endogenous in brain)) (UniProt Q8VI36); experiment: co-IP; paxillin immunoprecipitated from P7 and P15 brain lysate; immunoblot of co-precipitated proteins
[3] = biological target: FLAG-tagged paxillin S119A (phospho-deficient) (UniProt P49024); experiment: co-IP; anti-FLAG immunoprecipitation of lysates of Neuro2a cells transfected with FLAG-tagged paxillin variants, in the presence of forskolin; immunoblot of endogenous partners
[4] = biological target: FLAG-tagged wild-type paxillin (UniProt P49024); experiment: as above
[5] = biological target: FLAG-tagged paxillin S119D (phosphomimetic) (UniProt P49024); experiment: as above
[6] = biological target: FLAG-tagged wild-type paxillin (UniProt P49024); experiment: as above; remark: listed apart in the source
[7] = biological target: FLAG-tagged paxillin S119A (phospho-deficient) (UniProt P49024); experiment: as above; remark: listed apart in the source
[8] = biological target: paxillin (endogenous, rat primary neurons) (rat (endogenous in primary neuronal cultures)) (UniProt Q66H76); experiment: co-IP; paxillin immunoprecipitated from lysates of DIV7 primary neuronal cultures (control, BDNF 20 ng/ml 2 h, or IPZ 5 μM 16 h then BDNF); immunoblot of co-precipitated proteins; remark: listed apart in the source

U2AF2 (rat) (from UniProt F2Z3T9 1-475)
binding [1]: binds

ELAVL4 (mouse) (from UniProt Q61701 1-385)
binding [2]: binds
binding [3]: binds
binding [4]: binds

HNRNPK (mouse) (from UniProt P61979 1-463)
binding [2]: binds

ELAVL4 (rat) (from UniProt O09032 1-385)
binding [1]: binds

HNRNPK (rat) (from UniProt P61980 1-463)
binding [1]: binds

IGF2BP1 (from UniProt O88477 1-577)
binding [3]: binds
binding [4]: binds

U2AF2 (mouse) (from UniProt P26369 1-475)
binding [2]: binds

B1: importin β2 (protein, UniProt Q8BFY9 1-898)
chain: MVWDRQTKMEYEWKPDEQGLQQILQLLKESQSPDTTIQRTVQQKLEQLNQYPDFNNYLIFVLTKLKSEDEPTRSLSGLILKNNVKAHFQNFPNGVTDFIKSECLNNIGDSSPLIRATVGILITTIASKGELQNWPDLLPKLCSLLDSEDYNTCEGAFGALQKICEDSAEILDSDVLDRPLNIMIPKFLQFFKHSSPKIRSHAVACVNQFIISRTQALMLHIDSFIENLFALAGDEEAEVRKNVCRALVMLLEVRMDRLLPHMHNIVEYMLQRTQDQDENVALEACEFWLTLAEQPICKDVLVRHLPKLIPVLVNGMKYSDIDIILLKGDVEEDETIPDSEQDIRPRFHRSRTVAQQHEEDGIEEEDDDDDEIDDDDTISDWNLRKCSAAALDVLANVYRDELLPHILPLLKELLFHHEWVVKESGILVLGAIAEGCMQGMIPYLPELIPHLIQCLSDKKALVRSITCWTLSRYAHWVVSQPPDTYLKPLMTELLKRILDSNKRVQEAACSAFATLEEEACTELVPYLAYILDTLVFAFSKYQHKNLLILYDAIGTLADSVGHHLNKPEYIQMLMPPLIQKWNMLKDEDKDLFPLLECLSSVATALQSGFLPYCEPVYQRCVNLVQKTLAQAMLNNAQPEQYEAPDKDFMIVALDLLSGLAEGLGGNIEQLVARSNILTLMYQCMQDKMPEVRQSSFALLGDLTKACFQHVKPCIADFMPILGTNLNPEFISVCNNATWAIGEISIQMGIEMQPYIPMVLHQLVEIINRPNTPKTLLENTAITIGRLGYVCPQEVAPMLQQFIRPWCTSLRNIRDNEEKDSAFRGICTMISVNPSGVIQDFIFFCDAVASWINPKDDLRDMFCKILHGFKNQVGDENWRRFSDQFPLPLKERLAAFYGV
binding [5]: binds
binding [6]: binds

B2: U2AF1 (mouse) (protein, UniProt Q9D883 1-239)
chain: MAEYLASIFGTEKDKVNCSFYFKIGACRHGDRCSRLHNKPTFSQTIALLNIYRNPQNSSQSADGLRCAVSDVEMQEHYDEFFEEVFTEMEEKYGEVEEMNVCDNLGDHLVGNVYVKFRREEDAEKAVIDLNNRWFNGQPIHAELSPVTDFREACCRQYEMGECTRGGFCNFMHLKPISRELRRELYGRRRKKHRSRSRSRERRSRSRDRGRGGGGGGGGGGGRERDRRRSRDRERSGRF
binding [2]: binds
binding [7]: binds
binding [6]: binds

B3: SF3B1 (protein, UniProt Q99NB9 1-1304)
chain: MAKIAKTHEDIEAQIREIQGKKAALDEAQGVGLDSTGYYDQEIYGGSDSRFAGYVTSIAATELEDDDDDYSSSTSLLGQKKPGYHAPVALLNDIPQSTEQYDPFAEHRPPKIADREDEYKKHRRTMIISPERLDPFADGGKTPDPKMNARTYMDVMREQHLTKEEREIRQQLAEKAKAGELKVVNGAAASQPPSKRKRRWDQTADQTPGATPKKLSSWDQAETPGHTPSLRWDETPGRAKGSETPGATPGSKIWDPTPSHTPAGAATPGRGDTPGHATPGHGGATSSARKNRWDETPKTERDTPGHGSGWAETPRTDRGGDSIGETPTPGASKRKSRWDETPASQMGGSTPVLTPGKTPIGTPAMNMATPTPGHIMSMTPEQLQAWRWEREIDERNRPLSDEELDAMFPEGYKVLPPPAGYVPIRTPARKLTATPTPLGGMTGFHMQTEDRTMKSVNDQPSGNLPFLKPDDIQYFDKLLVDVDESTLSPEEQKERKIMKLLLKIKNGTPPMRKAALRQITDKAREFGAGPLFNQILPLLMSPTLEDQERHLLVKVIDRILYKLDDLVRPYVHKILVVIEPLLIDEDYYARVEGREIISNLAKAAGLATMISTMRPDIDNMDEYVRNTTARAFAVVASALGIPSLLPFLKAVCKSKKSWQARHTGIKIVQQIAILMGCAILPHLRSLVEIIEHGLVDEQQKVRTISALAIAALAEAATPYGIESFDSVLKPLWKGIRQHRGKGLAAFLKAIGYLIPLMDAEYANYYTREVMLILIREFQSPDEEMKKIVLKVVKQCCGTDGVEANYIKTEILPPFFKHFWQHRMALDRRNYRQLVDTTVELANKVGAAEIISRIVDDLKDEAEQYRKMVMETIEKIMGNLGAADIDHKLEEQLIDGILYAFQEQTTEDSVMLNGFGTVVNALGKRVKPYLPQICGTVLWRLNNKSAKVRQQAADLISRTAVVMKTCQEEKLMGHLGVVLYEYLGEEYPEVLGSILGALKAIVNVIGMHKMTPPIKDLLPRLTPILKNRHEKVQENCIDLVGRIADRGAEYVSAREWMRICFELLELLKAHKKAIRRATVNTFGYIAKAIGPHDVLATLLNNLKVQERQNRVCTTVAIAIVAETCSPFTVLPALMNEYRVPELNVQNGVLKSLSFLFEYIGEMGKDYIYAVTPLLEDALMDRDLVHRQTASAVVQHMSLGVYGFGCEDSLNHLLNYVWPNVFETSPHVIQAVMGALEGLRVAIGPCRMLQYCLQGLFHPARKVRDVYWKIYNSIYIGSQDALIAHYPRIYNDDKNTYIRYDLDYIL
binding [7]: binds
binding [6]: binds

B4: NOVA1 (protein, UniProt Q80WA4 1-474)
chain: MAAAPIQQNGTHTGVPIDLDPPDSRKRPLEAPPEAGSTKRTNTGEDGQYFLKVLIPSYAAGSIIGKGGQTIVQLQKETGATIKLSKSKDFYPGTTERVCLIQGTIEALNAVHGFIAEKIREMPQNVAKTEPVSILQPQTTVNPDRIKQVKIIVPNSTAGLIIGKGGATVKAIMEQSGAWVQLSQKPDGINLQERVVTVSGEPEQNRKAVELIIQKIQEDPQSGSCLNISYANVTGPVANSNPTGFPYANTAEVLPTAAAAAGLLGHANLAGVAAFPAVLSGFTGNDLVAITSALNTLASYGYNLNTLGLGLSQAAATGALAAAAASANPAAAAANLLATYASEASASGSTAGGTAGTFALGSLAAATAATNGYFGAASPLAASAILGTEKSTDGSKDVVEIAVPENLVGAILGKGGKTLVEYQELTGARIQISKKGEFVPGTRNRKVTITGTPAATQAAQYLITQRITYEQGVR
binding [8]: binds

B5: matrin3 (protein, UniProt P43244 1-845)
chain: MSKSFQQSSLGRDSQGHGRDLSAAGIGLLAAATQSLSMPASLGRMNQGTARLASLMNLGMSSSLNQQGAHSALSSASTSSHNLQSIFNIGSRGPLPLSSQHRGDTDQASNILASFGLSARDLDELSRYPEDKITPENLPQILLQLKRRRTEEGPTLSYGRDGRSATREPPYRVPRDDWEEKRHFRRDSFDDRGPSLNPVLDYDHGSRSQESGYYDRMDYEDDRLRDGERCRDDSFFGETSHNYHKFDSEYERMGRGPGPLQERSLFEKKRGAPPSSNIEDFHGLLPKGYPHLCSICDLPVHSNKEWSQHINGASHSRRCQLLLEIYPEWNPDNDTGHTMGDPFMLQQSTNPAPGILGPPPPSFHLGGPAVGPRGNLGAGNGNLQGPRHMQKGRVETSRVVHIMDFQRGKNLRYQLLQLVEPFGVISNHLILNKINEAFIEMATTEDAQAAVDYYTTTPALVFGKPVRVHLSQKYKRIKKPEGKPDEKFDQKQELGRVIHLSNLPHSGYSDSAVLKLAEPYGKIKNYILMRMKSQAFIEMETREDAMAMVDHCLKKALWFQGRCVKVDLSEKYKKLVLRIPNRGIDLLKKDKSRKRSYSPDGKESPSDKKSKTDGAQKTENPAEGKEQEEKSGEDGEKDTKDDQTEQEPSMLLESEDELLVDEEEAAALIESGSSVGDETDLANLGDVSSDGKKEPSDKAVKKDASATSKKKLKKVDKIEELDQENEAALENGIKNEENTEPGAESAENADDPNKDASDNSDGQNDENKEDYTIPDEYRIGPYQPNVPGGIDYVIPKTGFYCKLCSLFYTNEEVAKNTHCSSLPHYQKLKKFLNKLAEERRQKKES
binding [8]: binds

B6: SF1 (mouse) (protein, UniProt Q64213 1-653)
chain: MATGANATPLDFPSKKRKRSRWNQDTMEQKTVIPGMPTVIPPGLTREQERAYIVQLQIEDLTRKLRTGDLGIPPNPEDRSPSPEPIYNSEGKRLNTREFRTRKKLEEERHTLITEMVALNPDFKPPADYKPPATRVSDKVMIPQDEYPEINFVGLLIGPRGNTLKNIEKECNAKIMIRGKGSVKEGKVGRKDGQMLPGEDEPLHALVTANTMENVKKAVEQIRNILKQGIETPEDQNDLRKMQLRELARLNGTLREDDNRILRPWQSSETRSITNTTVCTKCGGAGHIASDCKFQRPGDPQSAQDKARMDKEYLSLMAELGEAPVPASVGSTSGPATTPLASAPRPAAPASNPPPPSLMSTTQSRPPWMNSGPSENRPYHGMHGGGPGGPGGGPHSFPHPLPSLTGGHGGHPMQHNPNGPPPPWMQPPPPPMNQGPHPPGHHGPPPMDQYLGSTPVGSGVYRLHQGKGMMPPPPMGMMPPPPPPPSGQPPPPPSGPLPPWQQQQQQPPPPPPPSSSMASSTPLPWQQNTTTTTTSAGTGSIPPWQQQQAAAAASPGTPQMQGNPTMVPLPPGVQPPLPPGAPPPPPCSIECLLCLLSSPNSLCLSPNRAARIPPRGSDGPSHESEDFPRPLVTLPGRQPQQRPWWTGWFGKAA
binding [2]: binds
